Measurements taken from paper PMC3395635.
Results are given in words; binding and its absence hold for the method and conditions named. In cells and extracts the contact can be indirect. Here binding means that the protein was enriched with, or labelled near, the bait; the list need not be complete.

Target: HIV-1 integrase with a C-terminal biotin acceptor sequence, biotinylated (virus NLXINB) (HIV-1)
Assay: affinity purification with mass spectrometry

B1: TRAP1 (protein, UniProt Q12931 60-704)
chain: STQTAEDKEEPLHSIISSTESVQGSTSKHEFQAETKKLLDIVARSLYSEKEVFIRELISNASDALEKLRHKLVSDGQALPEMEIHLQTNAEKGTITIQDTGIGMTQEELVSNLGTIARSGSKAFLDALQNQAEASSKIIGQFGVGFYSAFMVADRVEVYSRSAAPGSLGYQWLSDGSGVFEIAEASGVRTGTKIIIHLKSDCKEFSSEARVRDVVTKYSNFVSFPLYLNGRRMNTLQAIWMMDPKDVREWQHEEFYRYVAQAHDKPRYTLHYKTDAPLNIRSIFYVPDMKPSMFDVSRELGSSVALYSRKVLIQTKATDILPKWLRFIRGVVDSEDIPLNLSRELLQESALIRKLRDVLQQRLIKFFIDQSKKDAEKYAKFFEDYGLFMREGIVTATEQEVKEDIAKLLRYESSALPSGQLTSLSEYASRMRAGTRNIYYLCAPNRHLAEHSPYYEAMKKKDTEVLFCFEQFDELTLLHLREFDKKKLISVETDIVVDHYKEEKFEDRSPAAECLSEKETEELMAWMRNVLGSRVTNVKVTLRLDTHPAMVTVLEMGAARHFLRMQQLAKTQEERAQLLQPTLEINPRHALIKKLNQLRASEPGLAQLLVDQIYENAMIAAGLVDDPRAMVGRLNELLVKALERH
In the case of B1, the binding is reported as “binds”.
